From the supplement of paper PMC4635364
Counter-ions that a name gives are not always drawn. The list shows a part of the results. This data set is noisy: repeats of one test often differ as much as different tests do.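 Cells: ReNCell VM human fetal ventral-midbrain neural progenitors, differentiated mitogen-free. Blinded raters compared doublecortin-stained (early neurons) or tyrosine hydroxylase-stained (dopaminergic neurons) images with untreated wells, where 0 means no change. After repeats and both raters were averaged, compounds scoring 2 or above became hits for retesting.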

How the values were obtained:
ReNCell VM [1] = assay: neuronal differentiation score (DCX+ cell fraction vs untreated, manual image score) (score (-3 to 3)); higher = more neuronal differentiation; conditions: 2 uM, 2 weeks
ReNCell VM [2] = assay: dopaminergic neuron differentiation score (TH+ cell fraction vs untreated, manual image score) (score (0 to 3)); higher = more TH+ dopaminergic neuron differentiation; conditions: 2 uM, 4 weeks, BDNF 10 ng/ml + GDNF 10 ng/ml

Cc1c(C(=O)N(C)C2CCCCC2)sc2nc3ccc(N)cc3n12
neuronal differentiation score (ReNCell VM [1]; library: Tocriscreen): inactive: 0
dopaminergic neuron differentiation score (ReNCell VM [2]; library: Tocriscreen): inactive: 0

CC(=O)N(CC(C)C(=O)O)c1c(I)cc(I)c(N)c1I (configuration not stated) [Iocetamic acid]
neuronal differentiation score (ReNCell VM [1]; library: Prestwick): inactive: 0
dopaminergic neuron differentiation score (ReNCell VM [2]; library: Prestwick): inactive: 0

NC(N)=N[C@@H](CCC(=O)O)C(=O)O [alpha-Guanidinoglutaric acid]
neuronal differentiation score (ReNCell VM [1]; library: LOPAC): inactive: 0
dopaminergic neuron differentiation score (ReNCell VM [2]; library: LOPAC): inactive: 1

O=C(O)c1cn(-c2ccc(F)cc2)c2cc(N3CCNCC3)c(F)cc2c1=O [Sarafloxacin]
neuronal differentiation score (ReNCell VM [1]; library: Prestwick): inactive: 0
dopaminergic neuron differentiation score (ReNCell VM [2]; library: Prestwick): inactive: 0

OC(c1ccccc1)C1CCN(CCc2ccccc2)CC1 (configuration not stated)
neuronal differentiation score (ReNCell VM [1]; library: Tocriscreen): inactive: 0
dopaminergic neuron differentiation score (ReNCell VM [2]; library: Tocriscreen): inactive: 0

NCCCCCCCCCCNS(=O)(=O)c1cccc2c(Cl)cccc12 [A-7 hydrochloride]
neuronal differentiation score (ReNCell VM [1]; library: Tocriscreen): inactive: 0
dopaminergic neuron differentiation score (ReNCell VM [2]; library: Tocriscreen): inactive: 0

O=C(O)c1cccnc1C(=O)O
neuronal differentiation score (ReNCell VM [1]; library: Spectrum): inactive: 0
dopaminergic neuron differentiation score (ReNCell VM [2]; library: Spectrum): inactive: 0

N=C(N)NCCN1CCCCCCC1
neuronal differentiation score (ReNCell VM [1]; library: Spectrum): inactive: 1
dopaminergic neuron differentiation score (ReNCell VM [2]; library: Spectrum): inactive: 0

Nc1nc(=O)c2c([nH]1)NCC(CNc1ccc(C(=O)N[C@@H](CCC(=O)O)C(=O)O)cc1)=N2
neuronal differentiation score (ReNCell VM [1]; library: Spectrum): inactive: 0
dopaminergic neuron differentiation score (ReNCell VM [2]; library: Spectrum): inactive: 0

COc1cc2c(c(OC)c1OC)-c1c(cc3c(c1OC)OCO3)C[C@H](C)[C@](C)(O)[C@H]2OC(=O)c1ccccc1 [gomisin C]
neuronal differentiation score (ReNCell VM [1]; library: Natural): inactive: 0
dopaminergic neuron differentiation score (ReNCell VM [2]; library: Natural): inactive: 0

COc1ccc2[nH]c([S+]([O-])Cc3ncc(C)c(OC)c3C)nc2c1 (configuration not stated)
neuronal differentiation score (ReNCell VM [1]; library: Spectrum): inactive: 0
dopaminergic neuron differentiation score (ReNCell VM [2]; library: Spectrum): inactive: 0

Cc1ccc(C(=O)c2ccc(CC(=O)O)n2C)cc1 [Tolmetin sodium salt dihydrate]
neuronal differentiation score (ReNCell VM [1]; library: Prestwick): inactive: 0
dopaminergic neuron differentiation score (ReNCell VM [2]; library: Prestwick): inactive: 0

CCOC(=O)C1=C[C@@H](OC(CC)CC)[C@H](NC(C)=O)[C@@H](N)C1
neuronal differentiation score (ReNCell VM [1]; library: Spectrum): inactive: 0
dopaminergic neuron differentiation score (ReNCell VM [2]; library: Spectrum): inactive: 0

Cc1cccc(C)c1NC(=O)C(C)N (configuration not stated)
neuronal differentiation score (ReNCell VM [1]; library: Spectrum): inactive: 0
dopaminergic neuron differentiation score (ReNCell VM [2]; library: Spectrum): inactive: 0

C=CC[N@@+]12CC[C@@]34c5ccccc5N5/C=C6/[C@H]7C[C@H]8[C@@]9(CC[N@@+]8(CC=C)C/C7=C/CO)c7ccccc7N(/C=C(/[C@@H](C[C@@H]31)/C(=C\CO)C2)[C@H]54)[C@@H]69 [Alcuronium chloride]
neuronal differentiation score (ReNCell VM [1]; library: Prestwick): inactive: 0
dopaminergic neuron differentiation score (ReNCell VM [2]; library: Prestwick): inactive: 0

C1CCN2C[C@@H]3C[C@@H](CN4CCCC[C@@H]34)[C@H]2C1 [Sparteine (-)]
neuronal differentiation score (ReNCell VM [1]; library: Phytochemical): inactive: 0
dopaminergic neuron differentiation score (ReNCell VM [2]; library: Phytochemical): inactive: 0

CC[C@@]1(O)C(=O)OCc2c1cc1n(c2=O)Cc2cc3c(CN(C)C)c(O)ccc3nc2-1
neuronal differentiation score (ReNCell VM [1]; library: Spectrum): inactive: 0
dopaminergic neuron differentiation score (ReNCell VM [2]; library: Spectrum): inactive: 0

Nc1nnc(Sc2ncc([N+](=O)[O-])s2)s1
neuronal differentiation score (ReNCell VM [1]; library: Tocriscreen): inactive: 0
dopaminergic neuron differentiation score (ReNCell VM [2]; library: Tocriscreen): inactive: 0

CC(=O)O[C@H]1C[C@@]2(C)[C@@H](C[C@@H](O)[C@H]3[C@@]4(C)CC[C@@H](O)[C@@H](C)[C@@H]4CC[C@@]32C)/C1=C(\CCC=C(C)C)C(=O)O [Fusidic acid sodium]
neuronal differentiation score (ReNCell VM [1]; library: LOPAC): inactive: 0
dopaminergic neuron differentiation score (ReNCell VM [2]; library: LOPAC): inactive: 0

COc1ccccc1N1CCN(CCCNc2cc(=O)n(C)c(=O)n2C)CC1
neuronal differentiation score (ReNCell VM [1]; library: Spectrum): inactive: 0
dopaminergic neuron differentiation score (ReNCell VM [2]; library: Spectrum): inactive: 0

O=C(OOC(=O)c1ccccc1)c1ccccc1
neuronal differentiation score (ReNCell VM [1]; library: Spectrum): inactive: 0
dopaminergic neuron differentiation score (ReNCell VM [2]; library: Spectrum): inactive: 0

CC(=O)OCC(=O)NCCCOc1cccc(CN2CCCCC2)c1
neuronal differentiation score (ReNCell VM [1]; library: Spectrum): inactive: 1
dopaminergic neuron differentiation score (ReNCell VM [2]; library: Spectrum): inactive: 0

COc1ccc2[nH]c([S+]([O-])Cc3ncc(C)c(OC)c3C)nc2n1 (configuration not stated) [Tenatoprazole]
neuronal differentiation score (ReNCell VM [1]; library: Prestwick): inactive: 0
dopaminergic neuron differentiation score (ReNCell VM [2]; library: Prestwick): inactive: 0

O=c1cc(-c2ccccc2)oc2cccc(O)c12
neuronal differentiation score (ReNCell VM [1]; library: Spectrum): inactive: -1
dopaminergic neuron differentiation score (ReNCell VM [2]; library: Spectrum): inactive: 0

CC(C)C[C@H](NC(=O)[C@H](O)[C@H](N)Cc1ccccc1)C(=O)O [Epibestatin hydrochloride]
neuronal differentiation score (ReNCell VM [1]; library: LOPAC): inactive: 0
dopaminergic neuron differentiation score (ReNCell VM [2]; library: LOPAC): inactive: 0

O=C1OC(=O)[C@H]2[C@@H]1[C@@H]1CC[C@H]2O1
neuronal differentiation score (ReNCell VM [1]; library: Spectrum): inactive: 0
dopaminergic neuron differentiation score (ReNCell VM [2]; library: Spectrum): inactive: 0

COC(=O)Nc1nc2cc(C(=O)c3ccc(F)cc3)ccc2[nH]1 [Flubendazol]
neuronal differentiation score (ReNCell VM [1]; library: Prestwick): inactive: 0
dopaminergic neuron differentiation score (ReNCell VM [2]; library: Prestwick): inactive: 0

Fc1ccc(C(c2ccc(F)cc2)N2CCN(C/C=C/c3ccccc3)CC2)cc1
neuronal differentiation score (ReNCell VM [1]; library: Spectrum): inactive: 0
dopaminergic neuron differentiation score (ReNCell VM [2]; library: Spectrum): inactive: 0

O=c1ccc2ccccc2o1
neuronal differentiation score (ReNCell VM [1]; library: Spectrum): inactive: 0
dopaminergic neuron differentiation score (ReNCell VM [2]; library: Spectrum): inactive: 0

OCc1ccccc1O[C@@H]1O[C@H](CO)[C@@H](O)[C@H](O)[C@H]1O
neuronal differentiation score (ReNCell VM [1]; library: Spectrum): inactive: 0
dopaminergic neuron differentiation score (ReNCell VM [2]; library: Spectrum): inactive: 0

N=C(N)c1ccc(OCCCCCOc2ccc(C(=N)N)cc2)cc1
neuronal differentiation score (ReNCell VM [1]; library: Spectrum): inactive: 0
dopaminergic neuron differentiation score (ReNCell VM [2]; library: Spectrum): inactive: 0

CC[C@H](CO)Nc1nc(NCc2ccccc2)c2ncn(C(C)C)c2n1 [Roscovitine]
neuronal differentiation score (ReNCell VM [1]; library: LOPAC): inactive: 1
dopaminergic neuron differentiation score (ReNCell VM [2]; library: LOPAC): inactive: 0

CC(C)Cc1ccc([C@H](C)C(=O)O)cc1 [S-(+)-ibuprofen]
neuronal differentiation score (ReNCell VM [1]; library: Prestwick): inactive: 0
dopaminergic neuron differentiation score (ReNCell VM [2]; library: Prestwick): inactive: 0

NNC(=O)c1ccncc1
neuronal differentiation score (ReNCell VM [1]; library: Spectrum): inactive: 0
dopaminergic neuron differentiation score (ReNCell VM [2]; library: Spectrum): inactive: 0

NC(=O)c1cnccn1
neuronal differentiation score (ReNCell VM [1]; library: Spectrum): inactive: 0
dopaminergic neuron differentiation score (ReNCell VM [2]; library: Spectrum): inactive: 0

O=C1C(O)=C(O)C(=O)C(O)=C1O [Tetrahydroxy-1,4-quinone monohydrate]
neuronal differentiation score (ReNCell VM [1]; library: Prestwick): inactive: 0
dopaminergic neuron differentiation score (ReNCell VM [2]; library: Prestwick): inactive: 0
